# Reference: the supplement of paper PMC6411743
# ± gives the standard deviation of the averaged measurements. Only a part is listed here, and it is no random draw.
# Legend:
# Assay in all cases: NP40-soluble protein abundance relative to vehicle (solubility fold change) (ratio); higher = more soluble protein in presence of ATP
# [1] = target: T1, E7EMK3 and related entries (UniProt Q14254)
# T1 sequence (whole entry): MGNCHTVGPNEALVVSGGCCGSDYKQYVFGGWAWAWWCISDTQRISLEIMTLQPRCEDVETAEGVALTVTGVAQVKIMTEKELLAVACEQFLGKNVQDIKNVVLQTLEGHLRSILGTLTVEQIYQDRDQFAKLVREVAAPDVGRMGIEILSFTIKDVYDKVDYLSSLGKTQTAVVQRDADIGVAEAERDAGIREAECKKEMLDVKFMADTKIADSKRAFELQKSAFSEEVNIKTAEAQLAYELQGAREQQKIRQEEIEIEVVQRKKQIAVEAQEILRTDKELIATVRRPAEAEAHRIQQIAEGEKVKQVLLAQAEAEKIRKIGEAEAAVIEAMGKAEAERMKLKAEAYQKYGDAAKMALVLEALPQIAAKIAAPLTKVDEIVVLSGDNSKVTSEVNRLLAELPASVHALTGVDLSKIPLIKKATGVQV
# Outline: (§1)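 Each value is a fold change relative to the detergent-processed vehicle, calculated per replicate from vsn-normalised intensities. Jurkat crude lysate received eight concentrations (0.1 to 10 mM) for 10 min at room temperature and 3 min at 37 °C, then was solubilised in 0.8% NP40 with benzonase (60 min, 4 °C). The ultracentrifuged supernatant was TMT-labelled and run by LC-MS/MS in three independent experiments.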
# [2] = target: T2, E7EQ69 and related entries (UniProt Q9GZZ1)
# T2 sequence (whole entry): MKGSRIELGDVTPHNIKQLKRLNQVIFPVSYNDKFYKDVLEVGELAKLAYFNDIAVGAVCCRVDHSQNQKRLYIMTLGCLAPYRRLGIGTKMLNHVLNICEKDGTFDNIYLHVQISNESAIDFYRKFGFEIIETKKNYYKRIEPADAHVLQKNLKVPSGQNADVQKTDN
# Outline: as §1
# [3] = target: T3, E7ER26 and related entries (UniProt P57071)
# T3 sequence (whole entry): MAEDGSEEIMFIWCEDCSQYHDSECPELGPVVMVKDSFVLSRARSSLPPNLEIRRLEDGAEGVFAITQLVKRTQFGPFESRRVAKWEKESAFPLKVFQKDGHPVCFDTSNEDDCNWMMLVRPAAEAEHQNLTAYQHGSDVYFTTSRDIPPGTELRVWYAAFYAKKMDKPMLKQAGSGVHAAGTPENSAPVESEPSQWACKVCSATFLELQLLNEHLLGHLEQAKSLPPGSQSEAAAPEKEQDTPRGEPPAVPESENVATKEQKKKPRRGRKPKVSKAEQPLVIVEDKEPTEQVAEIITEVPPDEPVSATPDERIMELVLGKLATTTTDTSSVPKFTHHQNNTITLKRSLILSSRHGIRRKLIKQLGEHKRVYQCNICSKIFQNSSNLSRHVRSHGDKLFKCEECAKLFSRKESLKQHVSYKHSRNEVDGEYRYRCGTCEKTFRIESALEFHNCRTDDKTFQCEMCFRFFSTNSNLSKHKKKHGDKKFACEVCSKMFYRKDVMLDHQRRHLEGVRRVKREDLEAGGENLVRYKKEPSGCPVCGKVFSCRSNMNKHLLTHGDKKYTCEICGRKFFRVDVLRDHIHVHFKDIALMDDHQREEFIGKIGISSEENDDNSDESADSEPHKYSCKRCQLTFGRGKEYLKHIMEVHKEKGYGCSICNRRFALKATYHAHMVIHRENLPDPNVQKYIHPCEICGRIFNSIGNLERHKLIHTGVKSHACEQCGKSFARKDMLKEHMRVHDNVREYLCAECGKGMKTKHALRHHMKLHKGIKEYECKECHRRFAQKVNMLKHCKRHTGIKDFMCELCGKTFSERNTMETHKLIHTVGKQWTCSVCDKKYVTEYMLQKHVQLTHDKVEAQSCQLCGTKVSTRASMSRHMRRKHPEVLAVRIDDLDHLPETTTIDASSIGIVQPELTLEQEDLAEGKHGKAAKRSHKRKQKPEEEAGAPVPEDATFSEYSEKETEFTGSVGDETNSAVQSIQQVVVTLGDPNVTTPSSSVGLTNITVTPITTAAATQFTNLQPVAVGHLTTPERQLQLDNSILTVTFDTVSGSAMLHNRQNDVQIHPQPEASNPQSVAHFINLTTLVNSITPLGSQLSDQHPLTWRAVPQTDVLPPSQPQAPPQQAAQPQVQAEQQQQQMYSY
# Outline: as §1
# [4] = target: T4, E7ESC7 and related entries (UniProt Q7L5Y9)
# T4 sequence (whole entry): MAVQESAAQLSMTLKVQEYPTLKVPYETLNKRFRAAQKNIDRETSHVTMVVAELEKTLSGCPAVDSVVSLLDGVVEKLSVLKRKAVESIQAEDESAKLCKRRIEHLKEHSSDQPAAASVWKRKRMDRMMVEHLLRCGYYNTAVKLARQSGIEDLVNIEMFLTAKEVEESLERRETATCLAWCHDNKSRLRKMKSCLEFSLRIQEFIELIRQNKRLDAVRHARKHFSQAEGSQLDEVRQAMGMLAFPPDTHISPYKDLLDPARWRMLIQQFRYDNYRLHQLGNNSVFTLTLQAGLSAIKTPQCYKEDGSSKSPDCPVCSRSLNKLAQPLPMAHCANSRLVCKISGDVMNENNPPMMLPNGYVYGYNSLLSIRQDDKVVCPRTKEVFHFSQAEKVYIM
# Outline: as §1
# [5] = target: T5, E9PCW1 and related entries (UniProt O95249)
# T5 sequence (whole entry): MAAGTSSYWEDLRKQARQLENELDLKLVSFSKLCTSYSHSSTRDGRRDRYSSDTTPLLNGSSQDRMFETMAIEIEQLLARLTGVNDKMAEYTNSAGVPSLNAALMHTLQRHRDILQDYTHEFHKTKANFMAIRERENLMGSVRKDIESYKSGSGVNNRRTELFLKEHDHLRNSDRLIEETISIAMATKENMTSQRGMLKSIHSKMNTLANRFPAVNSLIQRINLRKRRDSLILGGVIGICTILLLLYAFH
# Outline: as §1
# [6] = target: T6, E9PDQ8 and related entries (UniProt Q96I99)
# T6 sequence (whole entry): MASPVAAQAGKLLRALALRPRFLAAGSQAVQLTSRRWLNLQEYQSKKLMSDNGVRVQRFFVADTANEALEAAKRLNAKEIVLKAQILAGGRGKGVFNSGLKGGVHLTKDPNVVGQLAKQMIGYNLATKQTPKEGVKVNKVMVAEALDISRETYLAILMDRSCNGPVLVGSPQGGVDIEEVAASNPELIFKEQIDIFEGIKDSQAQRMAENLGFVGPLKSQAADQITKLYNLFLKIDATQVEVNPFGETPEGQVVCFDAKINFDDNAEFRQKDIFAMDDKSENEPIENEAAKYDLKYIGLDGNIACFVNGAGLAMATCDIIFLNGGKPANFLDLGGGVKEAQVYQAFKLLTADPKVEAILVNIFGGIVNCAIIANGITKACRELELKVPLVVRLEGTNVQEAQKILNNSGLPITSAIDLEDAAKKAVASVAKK
# Outline: as §1
# [7] = target: T7, E9PFB9 and related entries (UniProt Q5T9S5)
# T7 sequence (whole entry): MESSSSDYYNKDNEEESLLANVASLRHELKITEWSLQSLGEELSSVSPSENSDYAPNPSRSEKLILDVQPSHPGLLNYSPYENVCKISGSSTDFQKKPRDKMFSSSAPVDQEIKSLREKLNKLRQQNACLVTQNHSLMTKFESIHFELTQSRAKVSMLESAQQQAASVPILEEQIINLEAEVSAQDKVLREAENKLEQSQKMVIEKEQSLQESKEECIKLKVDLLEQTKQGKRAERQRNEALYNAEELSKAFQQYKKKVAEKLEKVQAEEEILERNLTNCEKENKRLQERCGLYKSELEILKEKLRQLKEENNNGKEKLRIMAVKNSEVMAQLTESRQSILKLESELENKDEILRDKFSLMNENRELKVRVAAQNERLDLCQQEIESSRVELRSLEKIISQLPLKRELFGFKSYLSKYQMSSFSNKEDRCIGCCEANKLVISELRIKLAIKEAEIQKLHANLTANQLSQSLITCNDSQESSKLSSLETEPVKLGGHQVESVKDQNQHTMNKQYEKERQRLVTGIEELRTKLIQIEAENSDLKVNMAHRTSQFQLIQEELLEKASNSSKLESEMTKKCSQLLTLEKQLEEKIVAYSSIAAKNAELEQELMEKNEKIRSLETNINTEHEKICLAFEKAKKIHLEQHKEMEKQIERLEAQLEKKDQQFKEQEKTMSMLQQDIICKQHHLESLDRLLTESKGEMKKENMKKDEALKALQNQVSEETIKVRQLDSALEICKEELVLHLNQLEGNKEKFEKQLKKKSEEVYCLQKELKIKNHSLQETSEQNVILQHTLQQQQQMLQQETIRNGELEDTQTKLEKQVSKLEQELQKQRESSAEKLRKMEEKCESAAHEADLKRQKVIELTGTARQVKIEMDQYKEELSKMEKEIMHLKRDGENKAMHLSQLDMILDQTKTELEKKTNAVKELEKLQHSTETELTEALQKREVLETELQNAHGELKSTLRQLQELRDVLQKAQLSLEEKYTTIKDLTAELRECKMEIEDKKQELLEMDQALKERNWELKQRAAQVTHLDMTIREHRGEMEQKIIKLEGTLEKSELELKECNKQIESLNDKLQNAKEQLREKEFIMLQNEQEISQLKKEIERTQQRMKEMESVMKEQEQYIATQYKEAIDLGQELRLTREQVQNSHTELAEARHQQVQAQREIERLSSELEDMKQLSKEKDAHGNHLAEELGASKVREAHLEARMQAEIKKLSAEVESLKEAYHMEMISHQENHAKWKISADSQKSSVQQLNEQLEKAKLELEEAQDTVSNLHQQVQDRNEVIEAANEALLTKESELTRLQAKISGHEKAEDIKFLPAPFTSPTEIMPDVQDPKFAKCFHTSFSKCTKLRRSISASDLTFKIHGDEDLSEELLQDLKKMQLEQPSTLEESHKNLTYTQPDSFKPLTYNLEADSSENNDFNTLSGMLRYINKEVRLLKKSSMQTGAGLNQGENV
# Outline: as §1
smiles,measurement,setting,value
Nc1ncnc2c1ncn2[C@@H]1O[C@H](COP(=O)(O)OP(=O)(O)OP(=O)(O)O)[C@@H](O)[C@H]1O [adenosine triphosphate],NP40-soluble protein abundance,[1]; concentration: 1mM,1.06 ± 0.017
same,NP40-soluble protein abundance,[1]; concentration: 2mM,0.96 ± 0.03
same,NP40-soluble protein abundance,[1]; concentration: 4mM,0.931 ± 0.025
same,NP40-soluble protein abundance,[1]; concentration: 6mM,0.966 ± 0.2
same,NP40-soluble protein abundance,[1]; concentration: 8mM,0.945 ± 0.096
same,NP40-soluble protein abundance,[1]; concentration: 10mM,0.911 ± 0.072
same,NP40-soluble protein abundance,[2]; concentration: 1mM,0.932 ± 0.047
same,NP40-soluble protein abundance,[2]; concentration: 2mM,0.974 ± 0.056
same,NP40-soluble protein abundance,[2]; concentration: 4mM,0.934 ± 0.023
same,NP40-soluble protein abundance,[2]; concentration: 6mM,0.867 ± 0.11
same,NP40-soluble protein abundance,[2]; concentration: 8mM,0.915 ± 0.011
same,NP40-soluble protein abundance,[2]; concentration: 10mM,0.953 ± 0.014
same,NP40-soluble protein abundance,[3]; concentration: 1mM,1.2 ± 0.12
same,NP40-soluble protein abundance,[3]; concentration: 2mM,1.23 ± 0.05
same,NP40-soluble protein abundance,[3]; concentration: 4mM,1.17 ± 0.11
same,NP40-soluble protein abundance,[3]; concentration: 6mM,1.19 ± 0.042
same,NP40-soluble protein abundance,[3]; concentration: 8mM,1.14 ± 0.17
same,NP40-soluble protein abundance,[3]; concentration: 10mM,1.18 ± 0.019
same,NP40-soluble protein abundance,[4]; concentration: 1mM,1.02 ± 0.044
same,NP40-soluble protein abundance,[4]; concentration: 2mM,0.956 ± 0.036
same,NP40-soluble protein abundance,[4]; concentration: 4mM,0.951 ± 0.037
same,NP40-soluble protein abundance,[4]; concentration: 6mM,0.957 ± 0.11
same,NP40-soluble protein abundance,[4]; concentration: 8mM,0.98 ± 0.089
same,NP40-soluble protein abundance,[4]; concentration: 10mM,0.96 ± 0.096
same,NP40-soluble protein abundance,[5]; concentration: 1mM,0.953 ± 0.035
same,NP40-soluble protein abundance,[5]; concentration: 2mM,0.946 ± 0.022
same,NP40-soluble protein abundance,[5]; concentration: 4mM,0.958 ± 0.015
same,NP40-soluble protein abundance,[5]; concentration: 6mM,0.997 ± 0.013
same,NP40-soluble protein abundance,[5]; concentration: 8mM,0.971 ± 0.039
same,NP40-soluble protein abundance,[5]; concentration: 10mM,0.95 ± 0.083
same,NP40-soluble protein abundance,[6]; concentration: 1mM,0.958 ± 0.0096
same,NP40-soluble protein abundance,[6]; concentration: 2mM,0.976 ± 0.032
same,NP40-soluble protein abundance,[6]; concentration: 4mM,0.931 ± 0.017
same,NP40-soluble protein abundance,[6]; concentration: 6mM,0.98 ± 0.051
same,NP40-soluble protein abundance,[6]; concentration: 8mM,0.94 ± 0.033
same,NP40-soluble protein abundance,[6]; concentration: 10mM,0.942 ± 0.055
same,NP40-soluble protein abundance,[7]; concentration: 1mM,0.924 ± 0.07
same,NP40-soluble protein abundance,[7]; concentration: 2mM,0.901 ± 0.034
same,NP40-soluble protein abundance,[7]; concentration: 4mM,0.858 ± 0.035

# Fetched one by one from the entries so far (2):
smiles,measurement,setting,value
Nc1ncnc2c1ncn2[C@@H]1O[C@H](COP(=O)(O)OP(=O)(O)OP(=O)(O)O)[C@@H](O)[C@H]1O [adenosine triphosphate],NP40-soluble protein abundance,[1]; concentration: 10mM,0.911 ± 0.072
same,NP40-soluble protein abundance,[6]; concentration: 10mM,0.942 ± 0.055
